Over roughly 33,000 sequences, “E-score (-0.5 to 0.5)” has its median near -0.0014; the highest 2% begin near 0.25. The list shows a part of the results.
Each sequence was assayed against T1, Cad1 (UniProt P24813) (assay: PBM E-score (8-mer binding enrichment) (E-score (-0.5 to 0.5)); higher = stronger / more preferred TF binding). Settings: protein concentration: 100 nM; construct: GST-full length.
T1 sequence: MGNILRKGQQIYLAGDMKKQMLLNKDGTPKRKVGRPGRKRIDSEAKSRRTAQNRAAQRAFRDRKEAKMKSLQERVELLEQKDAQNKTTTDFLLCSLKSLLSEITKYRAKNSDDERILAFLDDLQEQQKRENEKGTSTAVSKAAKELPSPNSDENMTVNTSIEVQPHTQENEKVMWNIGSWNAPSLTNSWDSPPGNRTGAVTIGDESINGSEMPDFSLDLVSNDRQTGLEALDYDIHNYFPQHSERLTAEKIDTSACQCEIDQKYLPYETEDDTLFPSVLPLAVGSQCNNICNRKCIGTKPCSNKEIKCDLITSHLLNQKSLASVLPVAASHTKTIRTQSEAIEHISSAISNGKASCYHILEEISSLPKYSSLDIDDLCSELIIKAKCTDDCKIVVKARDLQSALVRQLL
Procedure: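 Universal 'all 10-mer' protein binding microarrays (Agilent AMADID 015681) probed with GST-tagged S. cerevisiae TFs (full-length or DBD) made by in vitro transcription/translation (PURExpress), about 100-200 nM. Bound TF was detected with fluorescent anti-GST. Each ungapped 8-mer (which stands for itself and its reverse complement) is scored by the PBM enrichment score (E-score), a modified Wilcoxon-Mann-Whitney statistic from -0.5 to +0.5, computed with the Universal PBM Analysis Suite. Scale: above 0.35 generally sequence-specific binding.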

In order of rising “PBM E-score” value:
1. CCAGGGGC  -0.42
2. AACCCCCA  -0.311
3. ACGCCCCT  -0.301
4. AAGGGGCG  -0.29
5. CGGCTCTC  -0.272
6. CTCCCCCA  -0.271
7. CCCCTTCA  -0.257
8. CAGCACCA  -0.242
9. ACCAACAG  -0.239
10. TAGGCTCA  -0.226
11. CAACGAGC  -0.222
12. GCAAAGCC  -0.221
13. CATAGAGC  -0.22
14. CCACGTAG  -0.213
15. ATCGGGGA  -0.206
16. GAGGAGCA  -0.203
17. CACGGTAC  -0.198
18. CCTCTTGC  -0.197
19. CCTGCACC  -0.171
20. ACTTACCT  -0.168
21. CTGGAAGC  -0.168
22. CCCTGCGC  -0.168
23. AAAGATGG  -0.159
24. CTGAGGTC  -0.158
25. GGCTAGGA  -0.155
26. GAGTCGGC  -0.147
27. AAACTATG  -0.145
28. ATGCTTGC  -0.14
29. ACCTTCGT  -0.13
30. CCTTGCAG  -0.13
31. CTCTTTCA  -0.125
32. CTAGGCGC  -0.124
33. AAAGGCCA  -0.124
34. GAGCATGA  -0.122
35. CGACGGCG  -0.119
36. AATGCCTA  -0.118
37. ACCAGACA  -0.117
38. GGACGTAC  -0.104
39. ACAGCAGC  -0.102
40. AGAGGCGC  -0.102
41. CCTAGCCG  -0.096
42. AAATAGCC  -0.0946
43. CTCCATGC  -0.0943
44. CTGGGTTA  -0.0909
45. CTAACAAG  -0.0899
46. CTTTGGGA  -0.0878
47. CGATGTTC  -0.0867
48. CCCCACAA  -0.0865
49. CTGTACAG  -0.0838
50. ATCCAGAT  -0.0808
51. AGCCCAGA  -0.0767
52. AATGCACC  -0.0757
53. CCAGAACA  -0.0733
54. ATCACCCC  -0.0703
55. GGCAGCAC  -0.0698
56. CGGCGCCC  -0.068
57. ACGGAGGA  -0.0636
58. AAAGCTAT  -0.0626
59. ACCAAGAG  -0.0606
60. GCGTTCTA  -0.0605
61. CCTCGGGC  -0.0591
62. CAATCTGA  -0.0585
63. ACTAGCCT  -0.0583
64. CGTTAAAG  -0.0571
65. ACACCCCT  -0.0545
66. AGGCGCTC  -0.054
67. TCATGGGA  -0.048
68. GGCTAGAA  -0.0479
69. CGAGTCAG  -0.045
70. AGGGTGTG  -0.0437
71. ACTGACTC  -0.0435
72. CGGGCGTA  -0.0361
73. AAGGCTGC  -0.0352
74. GAACGCCA  -0.0333
75. CACAACTG  -0.0296
76. AATTAACC  -0.0275
77. AATCCGCC  -0.0273
78. ACGTTAGT  -0.0241
79. AGCGGATA  -0.0234
80. AAAACTAG  -0.0215
81. GACCATGA  -0.0193
82. CAGCTCAC  -0.0192
83. CTAAAAAC  -0.0192
84. CGGTCTAA  -0.0121
85. CCACATTA  -0.0106
86. ACCCCGCC  -0.0102
87. ATCGTTTC  -0.0091
88. GCGCGTCC  -0.00373
89. ACCAGGAA  -0.00181
90. GAGACTGC  -0.00152
91. CCCGCCCA  0.00222
92. AGTGAGAC  0.00334
93. ATCTGCTG  0.00623
94. CAAGTGAC  0.00674
95. ACTAAGTG  0.00714
96. CTTGGAAC  0.00784
97. ATACGACA  0.00871
98. GGCCTCAC  0.0157
99. CAGATCCG  0.0163
100. GCGGCGCA  0.0175
101. ATTGGTGC  0.0222
102. CTAGTCGA  0.0243
103. GGAATACA  0.0249
104. GTCCAAAA  0.0254
105. TCTTGACA  0.0271
106. TAACTCAA  0.0271
107. CGGAGCGC  0.0273
108. GCGAACAC  0.0273
109. GAGGTTCC  0.0299
110. CTCACCTC  0.0325
111. GAAGTAAA  0.0339
112. AAGACCAA  0.035
113. ACGGATGA  0.0354
114. AACCTGGT  0.0368
115. CGAAGCTA  0.0437
116. ACGACCAC  0.0438
117. ACGTTCCT  0.0485
118. TGAATCCA  0.0491
119. CGCCTCTA  0.0573
120. CTTTGTCC  0.058
121. AGAGTGAA  0.0599
122. ACCAGTAA  0.06
123. GCACTGCC  0.0641
124. AAACTGTG  0.0644
125. GCGCTTCA  0.0664
126. CTTTCAGA  0.0705
127. CAGCTGAG  0.0708
128. ACCCGGTA  0.072
129. TGAGAAAA  0.0724
130. CGTTATAG  0.073
131. CACTCCAG  0.0828
132. AAATGCTT  0.0841
133. TGCAGACA  0.0864
134. AGTAGTAT  0.0888
135. CGTGCTTC  0.0901
136. AAAAAGTC  0.0909
137. CCGACAGA  0.094
138. ATATGCGA  0.0945
139. GAAGTATA  0.0967
140. GATCCATA  0.0973
141. GGTCCGGA  0.0978
142. CGCCAATA  0.0983
143. CTGAACCA  0.101
144. GAGCTCAA  0.104
145. AACGACGG  0.107
146. CATTATCC  0.108
147. CATTTCTC  0.119
148. CCGATCGG  0.12
149. AACGACAT  0.125
150. AGCAACGC  0.127
151. CTATACAA  0.128
152. CTATACCA  0.132
153. TCGTGTCA  0.133
154. ACATTACG  0.14
155. CGCGAGTA  0.141
156. ACATTACA  0.149
157. CATTGTGA  0.151
158. TCAGCACA  0.172
159. GTTCGGAA  0.174
160. GAACAAGA  0.176
161. AACTTATC  0.177
162. AGGATCCT  0.179
163. GTTCTGAA  0.189
164. ACGTTAAA  0.19
165. GCAACAAA  0.194
166. TGCTTGAA  0.202
167. ACTGATTA  0.265
168. AACTTGAT  0.268
169. AATCGTGC  0.276
170. ATAAGAAT  0.284
171. TAATAATA  0.29
172. GATGACAA  0.304
